Measurements as given in patent publication US6790603B2, “Compositions for the storage of platelets” (Bioenergy, Inc., priority 1999, dated 2004).

Test system: platelet concentrates
Test: pH and lactate of stored platelet concentrates

O=C[C@H](O)[C@H](O)[C@H](O)CO [D-Ribose]
Lactate production (15 mM D-Ribose): high lactate production | Lactate (about 150 nM D-Ribose): increased | pH of platelet concentrate (about 150 nM D-Ribose): remains constant
